Measured values from patent US20160304625A1.
These are yes or no findings as the source states them, for the method shown.

How the values were obtained:
[1] = biological target: human membrane bound IgG with lambda light chain (mIgG-lambda) (human); assay: hemadsorption, viable CRL 2289 cells
[2] = biological target: human membrane bound IgG with lambda light chain (mIgG-lambda) (human); assay: ELISA sandwich assay of cell lysate, CRL 2289

B1: monoclonal antibody mAb4-2b (antibody, mouse IgG1, V domains shown)
VH: EVQLEESGAELVKPGASLKLSCKASGYTFTSYWMNWVKQRPGQGLEWIGIIHPNSGSTNYNEKFKTKATLTVDKSSSTAYMQLSSLTSEDSAVYYCARTRGNYGMDYWGQGTSVTVSS
VL: DIVMTQSHKFMSTSVGDRVSITCKASQDVSTAVAWYQQKPGQSPTLLIYSASYRNTGVPDRFTGSGSGTDFTFTISSVQAEDLAVYYCQQHFSIPPLTFGAGTKLELKR
- binding [1]: no binding
- binding [2]: no binding
